Data on 16 compounds can be found in PubChem BioAssay AID256 (DTP/NCI, 2004).

The list is a part of this screen's results and no random one: it gathers tests that were run many times, whatever their T/C, doses with no T/C, and many T/C values between a quarter and a half above the control. Other doses and runs of a compound stand elsewhere. T/C is the treated group as % of the vehicle group. Some entries give survivors of the animals treated and no T/C: the source files T/C as zero there, which appears to mark a toxic dose or a test without result, not a measured value. Some survivor counts are full or nearly so, which does not show that the dose was tolerated: the source hardly ever lists a survival T/C far under the control, and the zero likely stands for such cases as well. Survivors were counted at the toxicity check, usually on the fifth day, unless a day is given; later deaths do not show. Schedules are NCI's codes, taken here to give the interval after Q, in days (D) or hours (H), and the number of doses after X. Some entries hold several experiments; their values stand side by side, smallest first. Where survival is the endpoint, this PubChem deposit counts one and a half times the control or more as active, and values a quarter to a half above the control carry no call in these data; other NCI protocols may use other cut-offs. Some T/C values are followed by the survivors on the day toxicity was checked, most often the fifth; where none is given, no animal had died by that day.

The subject of the test is CD2F1 mice, L1210 leukemia ip, survival T/C. Put plainly: NCI In Vivo Anticancer Drug Screen. Data for tumor model L1210 Leukemia (intraperitoneal) in CD2F1 (CDF1) mice. As to conditions: T/C endpoint: mean survival time, higher T/C = longer survival. The gist of the method: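 Vehicle-treated tumor-bearing mice served as controls (C) for compound-treated mice (T). Reported figure is T divided by C.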

Setting [1] is: dose: 25.0 mg/kg/injection, schedule: Q01DX009 (ip), vehicle: saline with Tween-80.
The mark [2] stands for this setting: dose: 50.0 mg/kg/injection, schedule: Q01DX009 (ip), vehicle: saline with Tween-80.
Setting [3] is: dose: 100.0 mg/kg/injection, schedule: Q01DX009 (ip), vehicle: saline with Tween-80.
[4] abbreviates: dose: 150.0 mg/kg/injection, schedule: Q01DX001 (ip), vehicle: saline.
Where [5] appears, read: dose: 300.0 mg/kg/injection, schedule: Q01DX001 (ip), vehicle: saline.
Setting [6] is: dose: 100.0 mg/kg/injection, schedule: Q04DX002 (ip), vehicle: saline with Tween-80.
Where [7] appears, read: dose: 200.0 mg/kg/injection, schedule: Q04DX002 (ip), vehicle: saline with Tween-80.
The mark [8] stands for this setting: dose: 400.0 mg/kg/injection, schedule: Q04DX002 (ip), vehicle: saline with Tween-80.
Setting [9] is: dose: 200.0 mg/kg/injection, schedule: Q01DX009 (ip), vehicle: saline with Tween-80.
The mark [10] stands for this setting: dose: 400.0 mg/kg/injection, schedule: Q01DX009 (ip), vehicle: saline with Tween-80.

Turning to `CN(C)c1ccc(C2OC3(CCCCC3)C[N+]23CCCC3)cc1` (stereo not drawn), the survivor count runs as follows: under setting [1], 3 of 6; under setting [2], 1 of 6; under setting [3], 0 of 6.
Turning to `CSc1sc2cc([N+](=O)[O-])ccc2[n+]1C`, the survivor count is, setting by setting: under setting [4], 1 of 6; under setting [5], 0 of 6.
Consider `O=N[O-].O=N[O-].O=N[O-].O=N[O-].O=N[O-].O=N[O-].[Co+3].[Co].[NH2-].[NH2-].[NH2-].[NH2-].[NH2-].[NH2-]`, for which the survivor count is, setting by setting: under setting [6], 1 of 3; under setting [7], 0 of 3; under setting [8], 0 of 3.
On to `CC(=O)Oc1c(C)[nH]ccc1=O`, for which the T/C under setting [9] was 131 % of control; the T/C under setting [10] was 125 % of control [5 of 6 alive]; the T/C (dose: 400.0 mg/kg/injection, schedule: Q01DX009 (ip), vehicle: saline) is 142 % of control; the T/C (dose: 800.0 mg/kg/injection, schedule: Q01DX009 (ip), vehicle: saline) was 138 % of control. Moreover, where the note is “dose: 800.0 mg/kg/injection, schedule: Q01DX009 (ip), vehicle: saline with Tween-80”, the survivor count was 0 of 6 and 1 of 6.
For `COc1ccc2nc3cc(Cl)ccc3c(NCCNCCNCCNc3c4ccc(Cl)cc4nc4ccc(OC)cc34)c2c1`, the survivor count (dose: 25.0 mg/kg/injection, schedule: Q01DX009 (ip), vehicle: Klucel (hydroxypropylcellulose) (HPC)) was 2 of 6 and the survivor count (dose: 100.0 mg/kg/injection, schedule: Q01DX009 (ip), vehicle: Klucel (hydroxypropylcellulose) (HPC)) is reported as 1 of 6.
On to `COc1cc2c(cc1OC)C(CCN1C(=O)CCC1=O)=NCC2`, for which, under “dose: 400.0 mg/kg/injection, schedule: Q04DX003 (ip), vehicle: saline sonified”, the survivor count was 6 of 6.
`CCCCOC(=O)C1C2CCC(O2)C1C(N)=O` (stereo not drawn): the survivor count is, setting by setting: under setting [6], 0 of 3; under setting [7], 0 of 3; under setting [8], 0 of 3.
Turning to `CO/N=C(/c1ccccc1)c1cccc[n+]1C`, the survivor count under setting [4] is reported as 0 of 6 and the survivor count under setting [5] was 0 of 6.
As for `CN(Cc1ccc(Cl)cc1)N=Nc1ccc(C(=O)O)cc1`, the survivor count (dose: 400.0 mg/kg/injection, schedule: Q01DX009 (ip), vehicle: other) is reported as 1 of 3.
`c1ccc(C2CC([P+](c3ccccc3)(c3ccccc3)c3ccccc3)=NN2)cc1` (stereo not drawn): the survivor count is given as 2 of 6 (dose: 50.0 mg/kg/injection, schedule: Q01DX001 (ip), vehicle: Klucel (hydroxypropylcellulose) (HPC)); 0 of 6 (dose: 75.0 mg/kg/injection, schedule: Q01DX001 (ip), vehicle: Klucel (hydroxypropylcellulose) (HPC)); 1 of 6 (dose: 110.0 mg/kg/injection, schedule: Q01DX001 (ip), vehicle: Klucel (hydroxypropylcellulose) (HPC)).
As to `[CH3][Pb]([CH3])([CH3])[NH]C#N`, the survivor count (dose: 10.0 mg/kg/injection, schedule: Q01DX009 (ip), vehicle: saline) is recorded as 5 of 6.
For the compound `Cc1c(C)c(O)c2c(c1C)C(C)C(=O)OC2=O` (stereo not drawn), the survivor count is listed as 3 of 6 (dose: 75.0 mg/kg/injection, schedule: Q01DX001 (ip), vehicle: saline); 0 of 6 under setting [4]; 0 of 6 under setting [5].
In the case of `COC(=O)c1[nH]cnc1/N=N\N(CCF)CCF`, where the note is “dose: 8.4 mg/kg/injection, schedule: Q01DX009 (ip), vehicle: carboxymethylcellulose (CMC)”, the T/C was 132 % of control. The survivor count runs as follows: (dose: 100.0 mg/kg/injection, schedule: Q01DX001 (ip), vehicle: other) 3 of 6; (dose: 200.0 mg/kg/injection, schedule: Q01DX001 (ip), vehicle: other) 1 of 6; (dose: 400.0 mg/kg/injection, schedule: Q01DX001 (ip), vehicle: other) 0 of 6.
Regarding `Nc1nc(N)c(-c2ccc(Cl)c(Cl)c2)c(/C=C/C=C/c2cccnc2)n1`, under setting [1], the T/C is 136 % of control. Besides, the survivor count reads like this: under setting [3], 6 of 6; under setting [9], 6 of 6; under setting [10], 0 of 6.
Consider `CC1CC[N-]CC1.CC1CC[N-]CC1.CS(C)=O.[Cl][Rh]([Cl])[Cl]`, for which the survivor count is, setting by setting: under setting [1], 4 of 6; under setting [2], 0 of 6; under setting [3], 0 of 6; (dose: 200.0 mg/kg/injection, schedule: Q04DX003 (ip), vehicle: saline with Tween-80) 0 of 6; (dose: 400.0 mg/kg/injection, schedule: Q04DX003 (ip), vehicle: saline with Tween-80) 0 of 6.
On to `CN(CCN1CCCC1)C(=O)C(O)(c1ccccc1)c1ccccc1`, for which, for the setting “dose: 400.0 mg/kg/injection, schedule: Q04DX003 (ip), vehicle: saline”, the survivor count was 0 of 3.
